Measured values as given in patent US20080102032A1.
These are yes or no findings as the source states them, for the method shown. Binding seen in cells or lysates may run through a third protein. Some results given as binding are weak or reduced against the parent protein; the word gives no strength.

By UniProt entry, the sequences of proteins in these tests, tags left out. Residues count along the entry.
UniProt P97481: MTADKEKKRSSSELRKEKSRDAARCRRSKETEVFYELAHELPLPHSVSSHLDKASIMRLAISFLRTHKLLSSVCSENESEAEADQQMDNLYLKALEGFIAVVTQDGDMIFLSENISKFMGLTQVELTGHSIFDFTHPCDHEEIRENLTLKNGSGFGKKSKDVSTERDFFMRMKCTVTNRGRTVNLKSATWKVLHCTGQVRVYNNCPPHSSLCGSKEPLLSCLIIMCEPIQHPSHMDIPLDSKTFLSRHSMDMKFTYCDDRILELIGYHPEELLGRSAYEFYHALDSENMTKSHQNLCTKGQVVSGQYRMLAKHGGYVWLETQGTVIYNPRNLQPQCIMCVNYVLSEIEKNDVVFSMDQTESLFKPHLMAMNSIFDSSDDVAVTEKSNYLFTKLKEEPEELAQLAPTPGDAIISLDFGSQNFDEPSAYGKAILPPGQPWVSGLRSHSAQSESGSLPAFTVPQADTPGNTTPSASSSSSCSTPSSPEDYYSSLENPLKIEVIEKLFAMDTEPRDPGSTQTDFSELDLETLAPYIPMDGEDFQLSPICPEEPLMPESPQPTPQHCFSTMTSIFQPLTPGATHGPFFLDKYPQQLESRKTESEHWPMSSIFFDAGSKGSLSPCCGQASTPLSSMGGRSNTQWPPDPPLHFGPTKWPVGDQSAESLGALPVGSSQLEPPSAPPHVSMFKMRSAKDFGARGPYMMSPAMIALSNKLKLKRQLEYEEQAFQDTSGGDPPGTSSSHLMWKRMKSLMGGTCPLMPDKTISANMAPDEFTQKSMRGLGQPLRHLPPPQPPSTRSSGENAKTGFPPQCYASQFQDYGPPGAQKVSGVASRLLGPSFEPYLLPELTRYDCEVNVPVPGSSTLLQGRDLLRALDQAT
UniProt Q61221: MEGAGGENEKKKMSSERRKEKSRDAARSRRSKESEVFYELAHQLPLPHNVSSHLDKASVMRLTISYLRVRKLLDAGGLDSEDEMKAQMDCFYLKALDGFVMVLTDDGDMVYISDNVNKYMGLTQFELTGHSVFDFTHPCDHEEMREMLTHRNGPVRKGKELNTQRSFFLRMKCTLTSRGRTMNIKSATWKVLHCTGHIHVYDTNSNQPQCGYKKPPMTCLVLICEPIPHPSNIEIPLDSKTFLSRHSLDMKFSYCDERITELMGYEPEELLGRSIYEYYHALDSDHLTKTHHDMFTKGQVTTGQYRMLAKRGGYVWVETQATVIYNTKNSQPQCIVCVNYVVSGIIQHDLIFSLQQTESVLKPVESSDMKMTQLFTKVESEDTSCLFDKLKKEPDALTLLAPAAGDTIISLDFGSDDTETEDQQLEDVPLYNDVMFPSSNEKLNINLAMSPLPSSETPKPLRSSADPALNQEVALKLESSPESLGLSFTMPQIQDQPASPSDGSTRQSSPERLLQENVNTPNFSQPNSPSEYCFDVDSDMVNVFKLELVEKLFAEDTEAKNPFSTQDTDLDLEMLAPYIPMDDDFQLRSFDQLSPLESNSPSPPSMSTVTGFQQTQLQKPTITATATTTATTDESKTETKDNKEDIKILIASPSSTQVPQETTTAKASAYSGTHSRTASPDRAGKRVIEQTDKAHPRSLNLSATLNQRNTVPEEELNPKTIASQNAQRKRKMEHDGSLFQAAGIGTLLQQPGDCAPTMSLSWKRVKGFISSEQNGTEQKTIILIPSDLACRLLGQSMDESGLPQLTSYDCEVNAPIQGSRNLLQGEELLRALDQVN
UniProt P53762, residues 2-791: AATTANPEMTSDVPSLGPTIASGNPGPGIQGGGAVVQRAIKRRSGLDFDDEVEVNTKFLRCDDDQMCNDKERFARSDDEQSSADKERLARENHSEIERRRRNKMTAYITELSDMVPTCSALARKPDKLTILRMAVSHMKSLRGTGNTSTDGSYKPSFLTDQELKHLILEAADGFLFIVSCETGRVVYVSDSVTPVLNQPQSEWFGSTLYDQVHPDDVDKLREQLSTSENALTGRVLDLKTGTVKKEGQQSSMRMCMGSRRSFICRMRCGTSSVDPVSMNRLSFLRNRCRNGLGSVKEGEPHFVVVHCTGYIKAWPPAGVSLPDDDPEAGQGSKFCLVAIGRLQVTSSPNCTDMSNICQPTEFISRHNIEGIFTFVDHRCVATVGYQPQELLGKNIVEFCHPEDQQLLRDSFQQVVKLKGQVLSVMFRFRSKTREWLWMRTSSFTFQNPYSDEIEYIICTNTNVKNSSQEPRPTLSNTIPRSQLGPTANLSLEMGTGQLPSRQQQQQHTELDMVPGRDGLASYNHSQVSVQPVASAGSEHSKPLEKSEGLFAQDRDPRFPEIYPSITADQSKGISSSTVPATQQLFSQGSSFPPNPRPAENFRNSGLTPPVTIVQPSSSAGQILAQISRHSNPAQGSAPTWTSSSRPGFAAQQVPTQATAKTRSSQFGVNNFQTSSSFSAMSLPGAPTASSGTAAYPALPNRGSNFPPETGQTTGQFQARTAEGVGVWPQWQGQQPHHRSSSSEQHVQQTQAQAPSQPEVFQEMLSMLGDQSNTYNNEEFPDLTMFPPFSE
UniProt P30561, residues 10-805: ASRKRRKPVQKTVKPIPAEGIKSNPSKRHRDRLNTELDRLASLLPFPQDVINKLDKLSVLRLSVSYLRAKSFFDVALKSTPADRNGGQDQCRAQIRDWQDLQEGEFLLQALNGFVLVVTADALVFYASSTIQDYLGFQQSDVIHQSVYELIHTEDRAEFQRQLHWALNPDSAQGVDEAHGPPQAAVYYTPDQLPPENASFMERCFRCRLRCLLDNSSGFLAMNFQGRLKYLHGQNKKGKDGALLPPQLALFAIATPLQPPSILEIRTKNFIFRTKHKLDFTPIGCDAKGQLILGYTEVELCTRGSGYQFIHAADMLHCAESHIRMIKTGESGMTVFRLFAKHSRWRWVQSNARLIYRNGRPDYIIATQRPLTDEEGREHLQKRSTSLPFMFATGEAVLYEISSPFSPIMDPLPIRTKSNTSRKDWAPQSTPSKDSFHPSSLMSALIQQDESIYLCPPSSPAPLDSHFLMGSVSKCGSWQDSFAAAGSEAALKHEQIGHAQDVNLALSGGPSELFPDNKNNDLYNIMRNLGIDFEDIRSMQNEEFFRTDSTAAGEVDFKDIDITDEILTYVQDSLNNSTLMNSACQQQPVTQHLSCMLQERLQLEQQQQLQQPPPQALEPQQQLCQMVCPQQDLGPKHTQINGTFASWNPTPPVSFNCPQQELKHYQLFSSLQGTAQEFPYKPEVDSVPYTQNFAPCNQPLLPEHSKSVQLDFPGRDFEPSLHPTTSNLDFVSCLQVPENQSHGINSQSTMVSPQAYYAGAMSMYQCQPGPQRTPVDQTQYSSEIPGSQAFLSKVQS
UniProt Q61324: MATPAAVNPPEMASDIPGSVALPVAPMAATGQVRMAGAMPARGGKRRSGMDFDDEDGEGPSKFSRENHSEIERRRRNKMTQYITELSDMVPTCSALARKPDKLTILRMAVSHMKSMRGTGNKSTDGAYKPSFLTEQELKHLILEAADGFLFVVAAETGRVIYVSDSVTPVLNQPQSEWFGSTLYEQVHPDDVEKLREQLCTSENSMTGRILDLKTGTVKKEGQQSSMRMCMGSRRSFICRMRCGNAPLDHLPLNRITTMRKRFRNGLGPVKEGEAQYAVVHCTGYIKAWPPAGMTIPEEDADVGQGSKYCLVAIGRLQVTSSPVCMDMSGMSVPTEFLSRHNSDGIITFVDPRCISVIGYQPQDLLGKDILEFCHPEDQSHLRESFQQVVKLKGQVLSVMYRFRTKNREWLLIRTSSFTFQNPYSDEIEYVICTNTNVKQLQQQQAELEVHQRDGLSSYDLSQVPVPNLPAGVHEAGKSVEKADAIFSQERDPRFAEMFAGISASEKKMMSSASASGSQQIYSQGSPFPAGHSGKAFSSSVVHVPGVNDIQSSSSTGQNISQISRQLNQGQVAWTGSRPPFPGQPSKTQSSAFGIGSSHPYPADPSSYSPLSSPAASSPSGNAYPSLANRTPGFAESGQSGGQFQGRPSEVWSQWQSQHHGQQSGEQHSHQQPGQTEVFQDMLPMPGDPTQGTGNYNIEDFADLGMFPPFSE

How the values were obtained:
[1] = molecular target: hypoxia inducible factor (HIF)-2α, endogenous in Min6 cells (mouse) (UniProt P97481); test: co-immunoprecipitation from Min6 cells
[2] = molecular target: hypoxia inducible factor (HIF)-1α, endogenous in Min6 cells (mouse) (UniProt Q61221); test: co-immunoprecipitation from Min6 cells
[3] = molecular target: aryl hydrocarbon receptor nuclear translocator (ARNT), endogenous in Min6 cells (mouse) (UniProt P53762); test: co-immunoprecipitation from Min6 cells
[4] = molecular target: aryl hydrocarbon receptor (AhR), endogenous in Min6 cells (mouse) (UniProt P30561); test: co-immunoprecipitation from Min6 cells
[5] = molecular target: hypoxia inducible factor (HIF)-2α, endogenous in Min6 cells (mouse) (UniProt P97481); test: co-immunoprecipitation from Min6 cells, Western blot
[6] = molecular target: hypoxia inducible factor (HIF)-1α, endogenous in Min6 cells (mouse) (UniProt Q61221); test: as above
[7] = molecular target: aryl hydrocarbon receptor nuclear translocator (ARNT), endogenous in Min6 cells (mouse) (UniProt P53762); test: as above
[8] = molecular target: aryl hydrocarbon receptor (AhR), endogenous in Min6 cells (mouse) (UniProt P30561); test: as above
[9] = molecular target: hypoxia inducible factor (HIF)-2α, endogenous in Min6 cells (mouse) (UniProt P97481); test: co-immunoprecipitation from Min6 nuclear extracts, Western blot for ARNT2
[10] = molecular target: hypoxia inducible factor (HIF)-1α, endogenous in Min6 cells (mouse) (UniProt Q61221); test: as above
[11] = molecular target: aryl hydrocarbon receptor (AhR), endogenous in Min6 cells (mouse) (UniProt P30561); test: as above

binding [1]: binds | binding [2]: binds | binding [3]: binds | binding [4]: binds | binding [5]: binds | binding [6]: binds | binding [7]: binds | binding [8]: binds | binding [9]: binds | binding [10]: binds | binding [11]: binds
Substance: aryl hydrocarbon nuclear receptor translocator 2 (ARNT2), endogenous in murine Min6 cells (from UniProt Q61324 1-712)
